No constants are given. Whether binding was seen depends on the method and setting. Some results given as binding are weak or reduced against the parent protein; the word gives no strength.
Key:
mouse NRP2 (mouse) [1] = target: T1, mouse NRP2 (mouse) (UniProt O35375); test: told in a figure legend; no binding assay described
T1 sequence (looked up): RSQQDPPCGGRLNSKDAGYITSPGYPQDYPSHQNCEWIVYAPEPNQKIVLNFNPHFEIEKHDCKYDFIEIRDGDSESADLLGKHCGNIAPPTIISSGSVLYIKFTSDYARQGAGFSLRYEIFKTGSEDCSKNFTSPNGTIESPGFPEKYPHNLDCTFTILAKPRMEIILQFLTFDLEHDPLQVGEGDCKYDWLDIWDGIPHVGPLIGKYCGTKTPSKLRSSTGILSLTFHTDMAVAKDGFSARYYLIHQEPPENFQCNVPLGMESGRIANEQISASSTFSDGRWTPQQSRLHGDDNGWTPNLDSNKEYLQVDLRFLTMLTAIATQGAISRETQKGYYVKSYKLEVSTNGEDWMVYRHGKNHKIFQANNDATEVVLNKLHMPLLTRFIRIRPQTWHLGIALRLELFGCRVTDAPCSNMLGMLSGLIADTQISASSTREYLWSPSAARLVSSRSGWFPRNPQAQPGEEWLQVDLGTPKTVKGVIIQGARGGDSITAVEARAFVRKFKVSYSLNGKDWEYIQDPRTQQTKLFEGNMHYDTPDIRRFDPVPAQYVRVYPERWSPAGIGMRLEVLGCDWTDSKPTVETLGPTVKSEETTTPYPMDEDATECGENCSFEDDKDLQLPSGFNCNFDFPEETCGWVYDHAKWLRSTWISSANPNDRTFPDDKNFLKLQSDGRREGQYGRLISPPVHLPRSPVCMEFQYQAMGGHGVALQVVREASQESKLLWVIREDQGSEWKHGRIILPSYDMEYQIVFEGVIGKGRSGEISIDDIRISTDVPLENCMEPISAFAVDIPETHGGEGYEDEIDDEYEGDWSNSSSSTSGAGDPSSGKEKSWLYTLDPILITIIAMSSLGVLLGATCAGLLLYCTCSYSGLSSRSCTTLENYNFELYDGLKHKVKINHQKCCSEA

mouse NRP2 (mouse) [2] = target: T1, mouse NRP2 (mouse); test: told in the example; no binding assay described

binding (mouse NRP2 (mouse) [1]): binds
binding (mouse NRP2 (mouse) [2]): binds
B1: aNRP2-28v2/4 (antibody, V domains shown)
VH: QSVKESEGGLFKPTDTLTLTCTVSGFSLSTYSISWVRQAPGNGLEWIGIIGDAGGIIYATWAKSRSTITRSTALNTVTLKMTGLTAADTATYFCARDGTAFDIWGPGTLVTVSS
VL: AYDMTQTPASVEVVVGGTVTIKCQASQSIYSKLGWYQQKPGQPPKLLIYRASTLASGVSSRFKGSGSGTEYTLTISGVQCDDAATYYCQQDYSYINVDNIFGGGTEVVVK

— patent US20210163606A1
